The record followed here is PMC7865483.

The chains behind the UniProt entries cited, without tags or fusion partners.
UniProt Q8TE04: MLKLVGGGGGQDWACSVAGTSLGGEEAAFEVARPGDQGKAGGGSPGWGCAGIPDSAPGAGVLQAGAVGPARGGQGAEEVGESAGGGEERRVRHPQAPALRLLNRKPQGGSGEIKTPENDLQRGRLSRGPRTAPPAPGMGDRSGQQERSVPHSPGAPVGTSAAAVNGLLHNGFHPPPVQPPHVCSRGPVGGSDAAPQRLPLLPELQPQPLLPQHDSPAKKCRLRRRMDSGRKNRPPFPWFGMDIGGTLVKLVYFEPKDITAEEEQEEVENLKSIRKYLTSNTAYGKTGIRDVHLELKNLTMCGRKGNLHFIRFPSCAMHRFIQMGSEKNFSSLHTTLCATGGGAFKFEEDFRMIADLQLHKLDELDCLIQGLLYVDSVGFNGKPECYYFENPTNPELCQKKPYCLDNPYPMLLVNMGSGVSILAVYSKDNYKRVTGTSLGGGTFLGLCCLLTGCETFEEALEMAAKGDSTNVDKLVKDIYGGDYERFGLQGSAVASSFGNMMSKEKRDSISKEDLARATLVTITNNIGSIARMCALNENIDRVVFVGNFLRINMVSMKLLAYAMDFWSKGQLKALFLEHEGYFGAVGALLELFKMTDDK
UniProt Q9HAB8: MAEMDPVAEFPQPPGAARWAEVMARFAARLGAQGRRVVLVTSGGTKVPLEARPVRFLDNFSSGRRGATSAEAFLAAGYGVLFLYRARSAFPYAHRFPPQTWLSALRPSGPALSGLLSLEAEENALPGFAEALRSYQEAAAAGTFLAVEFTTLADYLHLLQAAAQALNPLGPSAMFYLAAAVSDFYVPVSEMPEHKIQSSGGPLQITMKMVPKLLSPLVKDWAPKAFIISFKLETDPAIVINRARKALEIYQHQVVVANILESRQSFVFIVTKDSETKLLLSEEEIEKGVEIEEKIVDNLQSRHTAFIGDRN

No constants are given. Whether binding was seen depends on the method and setting. In cells and extracts the contact can be indirect. Some entries that bind do so weakly or less than the wild type.

The target of assay [1] is Pank1 (pantothenate kinase 1), endogenous in A549 cells (human (endogenous in A549)) (UniProt Q8TE04). Nature of the assay: condition: only exponentially growing cells in full medium, without serum starvation or H2O2; proximity ligation; in situ PLA (Duolink) on fixed A549 cells, endogenous proteins; control cells growing exponentially in full medium, not starved or treated.

The target is the same in assay [2]. Nature of the assay: proximity ligation; in situ PLA (Duolink) on fixed A549 cells, endogenous proteins; cells serum-starved for 24 h, or serum-starved and then treated with 500 μM H2O2.

Take “4′-phosphopantothenoylcysteine synthetase (PPCS) (from UniProt Q9HAB8 1-311) (enzyme)”: the binding result in assay [1] is recorded as “no binding”; in assay [2] it was “binds”.
